In this experiment the target is human BACE1 (Homo sapiens, UniProt P56817). The experiment is described as follows: Fluorescent kinetic assay: Evaluation of BACE-1 Binding Affinity of Test Compounds. The note with it: read-out: BACE-1 IC50 μM; 10 nM enzyme, 25 μM substrate WABC-6, 50 mM Na-Acetate pH 4.5, room temperature.

Amino acid sequences for entries named in this document (tags omitted). Residues count along the entry.
UniProt P56817, 46-501 limits assumed: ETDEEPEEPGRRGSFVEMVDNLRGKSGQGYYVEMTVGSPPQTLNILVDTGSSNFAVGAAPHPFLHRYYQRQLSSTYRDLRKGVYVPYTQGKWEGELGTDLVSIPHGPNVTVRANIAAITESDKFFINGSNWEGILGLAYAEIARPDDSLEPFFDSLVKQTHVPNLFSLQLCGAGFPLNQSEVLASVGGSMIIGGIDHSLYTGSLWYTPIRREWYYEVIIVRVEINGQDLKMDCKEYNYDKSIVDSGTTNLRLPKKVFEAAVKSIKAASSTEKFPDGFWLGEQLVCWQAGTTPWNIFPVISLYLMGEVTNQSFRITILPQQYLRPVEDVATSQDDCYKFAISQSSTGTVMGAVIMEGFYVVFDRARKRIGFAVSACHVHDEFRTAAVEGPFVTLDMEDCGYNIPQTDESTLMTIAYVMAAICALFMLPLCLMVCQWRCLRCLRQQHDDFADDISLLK

The match of structure and compound is tentative. A value given as a limit tells only on which side of the number the result lay.

By IC50 is commonly meant the concentration needed to halve the response being measured. Consider `CCCCCn1cc(C2(c3ccc(OC(F)F)cc3)N=C(N)N(C)C2=O)cn1` (centres unmarked), for which the IC50 was over 1 µM.
As for `CCC(=O)c1cc(C2(c3cccc(OCCF)c3)N=C(N)N(C)C2=O)cn1CC` (centres unmarked), the half-inhibitory concentration (IC50) lay in the range of 0.11 to 1 µM.

For the origin of these results see patent US7705030B2, “Amino-5-(5-membered)hetero-arylimidazolone compounds and the use thereof for β-secretase modulation” (Wyeth LLC, priority 2005, dated 2010).
